The target in assay [1] is T1, 5-LOX-activating protein, wild type (human) (UniProt P20292).
T1 sequence: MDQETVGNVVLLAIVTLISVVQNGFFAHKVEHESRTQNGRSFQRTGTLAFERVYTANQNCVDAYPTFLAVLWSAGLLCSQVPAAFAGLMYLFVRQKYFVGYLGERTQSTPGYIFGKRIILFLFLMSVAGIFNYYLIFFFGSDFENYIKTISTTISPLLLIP
The experiment in a line: proximity ligation; Duolink PLA in situ in unstimulated HEK293 cells expressing wildtype 5-LOX and FLAP (no A23187).

Assay [2] concerns the target T2, FLAP(I119A) (human) (UniProt P20292).
T2 sequence: T1 sequence with I119A
The experiment in a line: proximity ligation; Duolink PLA in situ in HEK293 cells co-expressing 5-LOX and FLAP mutants; 2.5 μM A23187 at 37 °C, the 10 min time point only.

For assay [3], the target named is T3, FLAP(Y112A) (human) (UniProt P20292).
T3 sequence: T1 sequence with Y112A
Described as above.

The target of assay [4] is T1, 5-LOX-activating protein, wild type (human). The experiment in a line: proximity ligation; Duolink PLA in situ in fixed, permeabilised HEK293 cells stably co-expressing 5-LOX and FLAP (wildtype or mutants); stimulated with 2.5 μM A23187 at 37 °C for 10 or 30 min; mouse anti-5-LOX and rabbit anti-FLAP; distance less than 40 nm.
The target in the next assay is T4, FLAP(S108D) (human, UniProt P20292 1-161, S108D).
T4 sequence (looked up): T1 sequence with S108D
Described as above.

For another assay, the target named is T5, FLAP(T109C) (human, UniProt P20292 1-161, T109C).
T5 sequence (looked up): T1 sequence with T109C
The description is as above.

Another assay concerns the target T6, FLAP(S41D) (human, UniProt P20292 1-161, S41D).
T6 sequence (looked up): T1 sequence with S41D
The description is as above.

Another assay has as its target T7, FLAP(A27L) (human) (UniProt P20292).
T7 sequence: T1 sequence with A27L
The assay is described as above.

Assay [5] concerns the target T2, FLAP(I119A) (human). The description is as above.
Another assay has as its target T8, FLAP(S108A) (human) (UniProt P20292).
T8 sequence: T1 sequence with S108A
The assay is described as above.

The target of the next assay is T9, FLAP(S41A) (human) (UniProt P20292).
T9 sequence: T1 sequence with S41A
The assay is described as above.

The target of a further assay is T10, FLAP(T45C) (human) (UniProt P20292).
T10 sequence: T1 sequence with T45C
The description is as above.

The target of another assay is T11, FLAP(T66A) (human) (UniProt P20292).
T11 sequence: T1 sequence with T66A
The assay is described as above.

The target in assay [6] is T3, FLAP(Y112A) (human). The description is as above.

Numbering of substitutions follows the chain as printed. These are yes or no findings as the source states them, for the method shown. Binding seen in cells or lysates may run through a third protein. Some results given as binding are weak or reduced against the parent protein; the word gives no strength.

The values below come from publication PMC12338864, “Modifications in FLAP's second cytosolic loop influence 5‐LOX interaction, inhibitor binding, and leukotriene formation” (Febs Letters, 2025).

B1: 5-lipoxygenase (enzyme, human, UniProt P09917 1-674, looked up)
chain: MPSYTVTVATGSQWFAGTDDYIYLSLVGSAGCSEKHLLDKPFYNDFERGAVDSYDVTVDEELGEIQLVRIEKRKYWLNDDWYLKYITLKTPHGDYIEFPCYRWITGDVEVVLRDGRAKLARDDQIHILKQHRRKELETRQKQYRWMEWNPGFPLSIDAKCHKDLPRDIQFDSEKGVDFVLNYSKAMENLFINRFMHMFQSSWNDFADFEKIFVKISNTISERVMNHWQEDLMFGYQFLNGCNPVLIRRCTELPEKLPVTTEMVECSLERQLSLEQEVQQGNIFIVDFELLDGIDANKTDPCTLQFLAAPICLLYKNLANKIVPIAIQLNQIPGDENPIFLPSDAKYDWLLAKIWVRSSDFHVHQTITHLLRTHLVSEVFGIAMYRQLPAVHPIFKLLVAHVRFTIAINTKAREQLICECGLFDKANATGGGGHVQMVQRAMKDLTYASLCFPEAIKARGMESKEDIPYYFYRDDGLLVWEAIRTFTAEVVDIYYEGDQVVEEDPELQDFVNDVYVYGMRGRKSSGFPKSVKSREQLSEYLTVVIFTASAQHAAVNFGQYDWCSWIPNAPPTMRAPPPTAKGVVTIEQIVDTLPDRGRSCWHLGAVWALSQFQENELFLGMYPEEHFIEKPVKEAMARFRKNLEAIVSVIAERNKKKQLPYYYLSPDRIPNSVAI
As to B1, the binding result in assay [1] is reported as “no binding (condition: unstimulated cells (no A23187))”; with FLAP(I119A) (human) [2], “no binding (condition: 10 min of stimulation)”; with FLAP(Y112A) (human) [3], “no binding (condition: 10 min of stimulation)”; in assay [4], “binds”; in the assay with FLAP(S108D), “no binding”; with FLAP(T109C), “binds”. In addition, the binding entry with FLAP(S41D), with FLAP(A27L) (human), with FLAP(I119A) (human) [5], with FLAP(S108A) (human), with FLAP(S41A) (human) and with FLAP(T45C) (human) was “binds” throughout. The binding result with FLAP(T66A) (human) and with FLAP(Y112A) (human) [6] was “binds” each time.
